Test results: the supplement of paper PMC12823440, “Inhibitors supercharge kinase turnover through native proteolytic circuits” (Nature, 2025)
Counter-ions that a name gives are not always drawn. This is one part of the list. The calls rarely recur for the same compound in another form.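 In K562 cells expressing nanoluciferase-fused kinases, luminescence was recorded at 4 h intervals between 2 and 18 h, normalized as percent of control with DMSO at 100% and a positive control at 0%. A significant (2 sigma) signal drop marks a time point as decreased. The authors' rule for a hit is not shown and takes in more than the number of time points.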

Sequences of proteins named here, by UniProt entry; tags and fusion partners are left off. A change or cut given only in a name is not applied to a line headed by its entry.
UniProt P36888, whole entry: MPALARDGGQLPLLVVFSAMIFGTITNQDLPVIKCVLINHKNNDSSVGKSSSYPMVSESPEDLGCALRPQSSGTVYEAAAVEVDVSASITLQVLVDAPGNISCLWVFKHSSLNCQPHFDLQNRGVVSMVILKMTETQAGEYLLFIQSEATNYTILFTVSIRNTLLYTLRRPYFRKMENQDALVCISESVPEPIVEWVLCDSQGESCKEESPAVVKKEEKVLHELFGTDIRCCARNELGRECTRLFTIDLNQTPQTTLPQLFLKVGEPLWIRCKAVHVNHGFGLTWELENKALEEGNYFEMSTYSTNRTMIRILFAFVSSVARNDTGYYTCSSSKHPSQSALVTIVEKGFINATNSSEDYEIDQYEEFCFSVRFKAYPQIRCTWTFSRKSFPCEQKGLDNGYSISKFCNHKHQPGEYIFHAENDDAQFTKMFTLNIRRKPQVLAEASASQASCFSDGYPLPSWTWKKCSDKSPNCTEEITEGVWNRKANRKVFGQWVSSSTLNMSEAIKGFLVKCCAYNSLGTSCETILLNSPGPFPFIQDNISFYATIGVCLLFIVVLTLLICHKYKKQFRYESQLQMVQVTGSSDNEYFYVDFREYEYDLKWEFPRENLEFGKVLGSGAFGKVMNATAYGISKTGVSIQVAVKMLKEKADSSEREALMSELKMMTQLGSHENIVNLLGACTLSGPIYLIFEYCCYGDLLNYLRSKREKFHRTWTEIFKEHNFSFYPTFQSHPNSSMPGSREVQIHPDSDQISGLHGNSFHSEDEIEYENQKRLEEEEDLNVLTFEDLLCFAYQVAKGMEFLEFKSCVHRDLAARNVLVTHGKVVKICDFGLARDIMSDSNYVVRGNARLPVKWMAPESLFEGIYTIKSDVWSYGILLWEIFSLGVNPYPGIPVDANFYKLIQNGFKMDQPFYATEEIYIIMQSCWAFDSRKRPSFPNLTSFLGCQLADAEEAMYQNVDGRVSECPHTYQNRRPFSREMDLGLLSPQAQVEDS
UniProt P06241, whole entry, looked up: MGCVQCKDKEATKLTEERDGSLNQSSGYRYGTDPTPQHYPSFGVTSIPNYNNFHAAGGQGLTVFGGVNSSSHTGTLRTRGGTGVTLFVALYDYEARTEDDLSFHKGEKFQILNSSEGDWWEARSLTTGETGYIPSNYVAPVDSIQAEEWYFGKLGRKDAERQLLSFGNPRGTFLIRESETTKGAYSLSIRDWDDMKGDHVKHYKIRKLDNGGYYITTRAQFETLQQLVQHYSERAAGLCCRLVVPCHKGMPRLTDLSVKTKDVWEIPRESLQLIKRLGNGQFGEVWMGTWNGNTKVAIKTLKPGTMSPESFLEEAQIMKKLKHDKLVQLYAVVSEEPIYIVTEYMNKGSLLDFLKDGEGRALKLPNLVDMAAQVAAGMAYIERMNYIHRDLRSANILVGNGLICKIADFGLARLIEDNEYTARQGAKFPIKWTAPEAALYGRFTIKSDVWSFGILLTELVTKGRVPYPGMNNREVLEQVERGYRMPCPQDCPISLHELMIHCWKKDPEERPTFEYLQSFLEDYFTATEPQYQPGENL
UniProt P23458: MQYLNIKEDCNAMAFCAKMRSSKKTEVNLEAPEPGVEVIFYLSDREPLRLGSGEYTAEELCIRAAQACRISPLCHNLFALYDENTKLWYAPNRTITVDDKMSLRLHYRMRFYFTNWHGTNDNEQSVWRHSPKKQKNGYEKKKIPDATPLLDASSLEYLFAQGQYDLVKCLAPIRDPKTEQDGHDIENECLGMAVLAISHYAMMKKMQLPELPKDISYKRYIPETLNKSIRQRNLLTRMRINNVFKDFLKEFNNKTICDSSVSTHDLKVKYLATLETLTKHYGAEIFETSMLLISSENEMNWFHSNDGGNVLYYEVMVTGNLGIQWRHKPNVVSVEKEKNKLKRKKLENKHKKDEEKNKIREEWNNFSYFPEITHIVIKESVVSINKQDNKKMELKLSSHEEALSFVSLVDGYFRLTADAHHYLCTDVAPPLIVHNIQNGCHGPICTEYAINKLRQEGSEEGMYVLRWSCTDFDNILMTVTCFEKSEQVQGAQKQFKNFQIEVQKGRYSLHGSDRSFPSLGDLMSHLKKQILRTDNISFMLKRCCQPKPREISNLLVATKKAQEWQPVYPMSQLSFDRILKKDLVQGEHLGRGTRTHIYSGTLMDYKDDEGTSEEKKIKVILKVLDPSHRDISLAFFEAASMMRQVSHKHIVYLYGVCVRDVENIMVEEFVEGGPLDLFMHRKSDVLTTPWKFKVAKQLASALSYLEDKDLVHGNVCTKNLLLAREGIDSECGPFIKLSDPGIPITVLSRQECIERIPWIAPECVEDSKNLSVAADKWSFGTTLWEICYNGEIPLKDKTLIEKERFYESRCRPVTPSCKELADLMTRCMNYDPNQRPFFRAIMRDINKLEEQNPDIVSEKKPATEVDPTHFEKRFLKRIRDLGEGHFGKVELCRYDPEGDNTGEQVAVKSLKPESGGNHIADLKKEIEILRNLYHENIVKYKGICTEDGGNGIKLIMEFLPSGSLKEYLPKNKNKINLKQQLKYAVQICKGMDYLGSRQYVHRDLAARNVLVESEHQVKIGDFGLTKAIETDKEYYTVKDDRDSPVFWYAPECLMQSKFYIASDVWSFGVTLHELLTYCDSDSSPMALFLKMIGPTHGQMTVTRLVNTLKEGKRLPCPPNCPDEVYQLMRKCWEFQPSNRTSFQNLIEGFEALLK
UniProt Q8IWU2: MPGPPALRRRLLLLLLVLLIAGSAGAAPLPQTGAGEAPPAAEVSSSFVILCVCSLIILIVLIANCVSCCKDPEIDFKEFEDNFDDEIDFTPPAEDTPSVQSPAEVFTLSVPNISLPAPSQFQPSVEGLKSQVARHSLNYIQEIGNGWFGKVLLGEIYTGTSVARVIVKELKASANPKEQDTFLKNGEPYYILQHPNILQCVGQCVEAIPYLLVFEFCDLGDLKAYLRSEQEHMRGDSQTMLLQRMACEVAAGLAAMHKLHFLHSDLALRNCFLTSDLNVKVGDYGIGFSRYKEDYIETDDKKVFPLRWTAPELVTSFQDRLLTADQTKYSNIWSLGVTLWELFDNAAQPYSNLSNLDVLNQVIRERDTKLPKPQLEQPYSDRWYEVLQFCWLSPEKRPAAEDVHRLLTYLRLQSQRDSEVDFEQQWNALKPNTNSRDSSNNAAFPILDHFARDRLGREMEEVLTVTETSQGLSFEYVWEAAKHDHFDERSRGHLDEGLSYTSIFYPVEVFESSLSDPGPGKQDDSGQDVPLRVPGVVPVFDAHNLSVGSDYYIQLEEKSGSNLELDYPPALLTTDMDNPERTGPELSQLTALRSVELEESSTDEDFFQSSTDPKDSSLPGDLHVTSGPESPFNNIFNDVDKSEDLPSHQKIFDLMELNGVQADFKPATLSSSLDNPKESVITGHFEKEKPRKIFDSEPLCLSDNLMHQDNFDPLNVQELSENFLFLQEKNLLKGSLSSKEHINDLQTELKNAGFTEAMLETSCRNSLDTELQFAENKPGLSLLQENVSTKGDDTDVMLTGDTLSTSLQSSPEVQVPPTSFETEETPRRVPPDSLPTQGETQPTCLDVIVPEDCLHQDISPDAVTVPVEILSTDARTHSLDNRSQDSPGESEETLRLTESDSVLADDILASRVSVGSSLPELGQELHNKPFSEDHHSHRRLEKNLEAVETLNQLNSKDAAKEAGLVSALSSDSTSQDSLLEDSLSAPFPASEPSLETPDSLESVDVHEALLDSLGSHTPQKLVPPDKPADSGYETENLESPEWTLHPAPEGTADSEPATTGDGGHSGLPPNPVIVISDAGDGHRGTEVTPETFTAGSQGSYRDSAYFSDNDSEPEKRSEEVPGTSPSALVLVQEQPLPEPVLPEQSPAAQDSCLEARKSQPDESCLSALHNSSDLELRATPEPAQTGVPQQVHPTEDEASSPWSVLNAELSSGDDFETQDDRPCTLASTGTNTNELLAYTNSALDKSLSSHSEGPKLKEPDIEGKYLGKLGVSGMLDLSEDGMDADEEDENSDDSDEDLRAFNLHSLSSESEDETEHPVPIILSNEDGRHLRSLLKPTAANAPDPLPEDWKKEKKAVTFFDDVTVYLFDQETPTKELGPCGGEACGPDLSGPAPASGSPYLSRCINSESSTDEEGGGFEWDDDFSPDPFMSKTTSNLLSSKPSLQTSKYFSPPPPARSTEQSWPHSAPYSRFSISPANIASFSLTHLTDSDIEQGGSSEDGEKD
UniProt P07948: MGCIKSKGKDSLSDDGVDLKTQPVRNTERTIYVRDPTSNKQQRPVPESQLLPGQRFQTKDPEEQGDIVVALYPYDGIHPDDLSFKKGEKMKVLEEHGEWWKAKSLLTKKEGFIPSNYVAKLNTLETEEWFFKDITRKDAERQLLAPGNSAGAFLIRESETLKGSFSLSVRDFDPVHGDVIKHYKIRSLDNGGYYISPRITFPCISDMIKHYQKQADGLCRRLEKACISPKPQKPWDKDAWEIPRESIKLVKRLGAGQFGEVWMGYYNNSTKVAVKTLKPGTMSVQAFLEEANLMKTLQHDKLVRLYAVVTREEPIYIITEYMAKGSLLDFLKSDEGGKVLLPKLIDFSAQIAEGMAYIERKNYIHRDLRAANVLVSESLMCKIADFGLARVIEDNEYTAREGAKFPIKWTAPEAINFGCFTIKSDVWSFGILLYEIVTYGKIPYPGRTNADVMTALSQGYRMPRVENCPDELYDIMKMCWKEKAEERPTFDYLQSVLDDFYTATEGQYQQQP
UniProt Q12851: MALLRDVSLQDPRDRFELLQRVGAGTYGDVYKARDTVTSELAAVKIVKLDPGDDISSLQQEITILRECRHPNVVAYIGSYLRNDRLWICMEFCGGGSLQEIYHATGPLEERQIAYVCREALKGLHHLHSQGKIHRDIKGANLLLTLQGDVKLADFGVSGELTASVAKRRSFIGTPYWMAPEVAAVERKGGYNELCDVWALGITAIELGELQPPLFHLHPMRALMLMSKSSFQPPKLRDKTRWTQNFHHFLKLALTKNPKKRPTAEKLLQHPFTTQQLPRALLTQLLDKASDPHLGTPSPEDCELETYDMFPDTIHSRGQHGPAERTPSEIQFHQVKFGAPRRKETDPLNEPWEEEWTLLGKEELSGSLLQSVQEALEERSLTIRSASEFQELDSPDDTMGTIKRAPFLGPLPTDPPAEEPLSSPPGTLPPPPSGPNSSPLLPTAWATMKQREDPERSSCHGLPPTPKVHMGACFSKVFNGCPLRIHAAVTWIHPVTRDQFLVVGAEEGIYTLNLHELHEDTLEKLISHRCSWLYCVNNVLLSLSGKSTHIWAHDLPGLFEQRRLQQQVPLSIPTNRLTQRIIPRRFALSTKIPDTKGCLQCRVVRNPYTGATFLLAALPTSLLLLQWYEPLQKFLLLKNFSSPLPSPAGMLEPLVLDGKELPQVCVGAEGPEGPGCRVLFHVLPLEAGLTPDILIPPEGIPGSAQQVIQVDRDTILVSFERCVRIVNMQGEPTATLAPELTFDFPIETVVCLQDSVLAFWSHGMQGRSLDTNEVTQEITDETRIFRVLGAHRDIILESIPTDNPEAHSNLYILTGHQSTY
UniProt P28482, whole entry: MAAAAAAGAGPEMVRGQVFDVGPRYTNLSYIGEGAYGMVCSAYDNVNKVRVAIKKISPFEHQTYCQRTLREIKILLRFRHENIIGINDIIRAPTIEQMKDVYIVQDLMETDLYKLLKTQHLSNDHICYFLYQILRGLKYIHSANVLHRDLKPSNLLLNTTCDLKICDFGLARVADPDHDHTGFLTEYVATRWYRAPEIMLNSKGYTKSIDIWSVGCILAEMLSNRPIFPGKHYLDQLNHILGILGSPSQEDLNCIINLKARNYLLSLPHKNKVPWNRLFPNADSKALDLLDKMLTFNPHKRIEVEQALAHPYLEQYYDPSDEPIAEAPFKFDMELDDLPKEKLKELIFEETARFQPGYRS
UniProt Q9BUB5: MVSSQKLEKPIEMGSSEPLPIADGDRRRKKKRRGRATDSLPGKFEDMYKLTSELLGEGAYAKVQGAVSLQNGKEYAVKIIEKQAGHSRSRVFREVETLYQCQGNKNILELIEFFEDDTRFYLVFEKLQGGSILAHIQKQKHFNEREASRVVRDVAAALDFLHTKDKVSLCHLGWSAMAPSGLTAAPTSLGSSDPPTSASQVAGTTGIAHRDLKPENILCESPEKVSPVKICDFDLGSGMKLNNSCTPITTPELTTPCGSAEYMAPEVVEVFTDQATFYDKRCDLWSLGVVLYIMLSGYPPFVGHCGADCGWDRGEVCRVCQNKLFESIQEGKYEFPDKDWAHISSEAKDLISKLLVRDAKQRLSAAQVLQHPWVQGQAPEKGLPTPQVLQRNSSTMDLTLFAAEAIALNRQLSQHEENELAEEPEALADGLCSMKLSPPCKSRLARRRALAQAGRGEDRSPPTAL

Key:
Assay in all cases: number of time points (of 5) at which kinase-Nluc abundance scored as decreased, DMSO-normalised (count); higher = more persistent destabilization
Conditions in all cases: K562; 2-18 h
FLT3 = FLT3 (UniProt P36888)
FYN = FYN (UniProt P06241)
GSK3A = GSK3A (UniProt P49840)
HER2 = HER2 (UniProt P04626)
INSRR = INSRR (UniProt P14616)
IRAK3 = IRAK3 (UniProt Q9Y616)
JAK1 = JAK1 (UniProt P23458)
LCK = LCK (UniProt P06239)
LIMK1 = LIMK1 (UniProt P53667)
LIMK2 = LIMK2 (UniProt P53671)
LMTK2 = LMTK2 (UniProt Q8IWU2)
LYN = LYN (UniProt P07948)
MAP2K1 = MAP2K1 (UniProt Q02750)
MAP2K2 = MAP2K2 (UniProt P36507)
MAP4K2 = MAP4K2 (UniProt Q12851)
MAPK1 = MAPK1 (UniProt P28482)
MAPK4 = MAPK4 (UniProt P31152)
MAPKAPK2 = MAPKAPK2 (UniProt P49137)
MKNK1 = MKNK1 (UniProt Q9BUB5)
NTRK2 = NTRK2 (UniProt Q16620)

SMILES	number of time points (FLT3)	number of time points (FYN)	number of time points (GSK3A)	number of time points (HER2)	number of time points (INSRR)	number of time points (IRAK3)	number of time points (JAK1)	number of time points (LCK)	number of time points (LIMK1)	number of time points (LIMK2)	number of time points (LMTK2)	number of time points (LYN)	number of time points (MAP2K1)	number of time points (MAP2K2)	number of time points (MAP4K2)	number of time points (MAPK1)	number of time points (MAPK4)	number of time points (MAPKAPK2)	number of time points (MKNK1)	number of time points (NTRK2)
COc1cc(/C=C/C(=O)N2CCC=CC2=O)cc(OC)c1OC [Piperlongumine] (2.5 µM)	0	2	0	4	2	2	0	0	2	1	4	0	0	0	0	0	1	0	1	0
NC(=O)N1CCC(CC(=O)N2CCC([C@H]3c4ncc(Br)cc4CCc4cc(Cl)cc(Br)c43)CC2)CC1 [Lonafarnib] (2.5 µM)	0	0	0	0	0	0	0	0	0	0	0	0	0	0	0	0	0	0	0	0
Cc1ccc(Oc2nc3cc(-c4ccc(-c5ccccc5)cc4)c(Cl)cc3[nH]2)cc1C(=O)O (10 µM)	0	0	0	0	0	0	0	0	0	0	0	0	0	0	0	0	0	0	0	0
O=[N+]([O-])c1ccc2c(c1)S(=O)(=O)C=C2 [Stattic] (2.5 µM)	0	0	0	1	0	0	0	0	3	0	0	0	0	0	0	0	0	0	0	0
CC(C)S(=O)(=O)c1ccc2nccc(Nc3ccc4scnc4c3)c2c1 (10 µM)	0	0	0	0	2	0	0	0	0	0	0	0	0	0	0	0	0	0	0	0
O=c1[nH]c(C2CCCN2)nc2c1oc1ccc(Cl)cc12 (stereo not given) [XL413 (hydrochloride)] (10 µM)	0	0	0	0	0	0	0	0	0	0	0	0	0	0	0	0	0	0	0	0
C#Cc1cccc(Nc2ncnc3cc(OC)c(OCCCCCCC(=O)NO)cc23)c1 (2.5 µM)	0	0	0	0	0	0	0	0	0	1	0	0	0	0	0	0	0	0	0	0
NC1=NCCN1CC(=O)O [Cyclocreatine] (10 µM)	0	0	0	0	0	0	0	0	0	0	0	0	0	0	0	0	0	0	0	0
CCc1cccc(CC)c1NC(=O)N1Cc2[nH]nc(NC(=O)c3ccc(N4CCN(C)CC4)cc3)c2C1 (2.5 µM)	1	2	0	1	3	0	3	0	4	2	0	0	0	0	0	0	0	0	1	1
C=CC(=O)N1C(=O)CC(c2ccc(F)cc2)Sc2ccccc21 (stereo not drawn) [GSK-3β inhibitor 3] (10 µM)	0	2	0	3	0	0	0	0	0	0	0	0	0	0	0	0	0	0	0	0
C[C@@H]1COCCN1c1nc(-c2cnc(N)cc2C(F)F)nc(N2[C@H](C)COC[C@@H]2C)n1 (2.5 µM)	0	0	0	0	0	2	0	0	0	4	0	0	0	0	0	0	0	0	0	1
COc1cc(N2CCOCC2)ccc1NC(=O)c1csc(-c2cccnc2)n1 [IRAK inhibitor 6] (10 µM)	0	0	0	0	0	0	0	0	0	0	0	0	0	0	0	0	0	0	0	0
c1ccc(-c2nc3c(c(-n4ccc5cnccc54)n2)CCC3)nc1 (10 µM)	0	0	0	0	0	0	0	0	0	0	0	0	0	0	0	0	0	0	0	0
CN(C)S(=O)(=O)c1ccc2c(c1)/C(=C/c1cc3c([nH]1)CCCC3)C(=O)N2 (2.5 µM)	0	2	0	0	4	0	0	2	0	0	0	0	0	0	0	0	0	0	0	0
O=c1cc(N2CCOCC2)nc2c3ccccc3ccn12 [Compound 401] (10 µM)	0	0	0	0	0	0	0	0	0	0	0	0	0	0	0	0	0	0	0	0
Cc1c(-c2ccc(C(N)=O)c3[nH]c4cc(C(C)(C)O)ccc4c23)cccc1-n1cnc2ccccc2c1=O (2.5 µM)	0	0	0	0	0	0	0	0	0	0	0	0	0	0	0	0	0	0	0	0
C[C@@H]1CN(c2cc(-c3n[nH]c4ccc(OC5(C)CC5)cc34)ncn2)C[C@H](C)O1 (10 µM)	0	0	0	0	0	0	0	0	0	1	0	0	0	0	0	0	0	0	0	0
N#Cc1c2nc3ccccc3nc2n2ccc(NC(=O)c3cccs3)cc12 (10 µM)	0	0	0	0	0	0	0	0	0	0	0	0	0	0	0	0	0	0	0	0
Cc1ccc(NC(=O)c2ccc(CN(CCN(C)C)C(=O)c3cccnc3)cc2)cc1Nc1nccc(-c2cccnc2)n1 [PDGFRα kinase inhibitor 1] (10 µM)	0	0	0	0	0	0	0	0	0	0	0	0	0	0	0	0	0	0	0	0
O=C1NC(=O)/C(=C/c2ccc3nccc(-c4ccncc4)c3c2)S1 (10 µM)	0	0	0	0	0	0	0	0	0	0	0	0	0	0	0	0	0	0	0	0
CCOC(=O)N1C/C(=C/c2ccccc2F)C(=O)/C(=C\c2ccccc2F)C1 (2.5 µM)	0	0	0	0	0	0	0	0	0	0	0	0	0	0	0	0	0	0	0	0
O=C(Nc1nc(=O)n(Cc2ccc(Cl)cc2)s1)c1ccc(Cl)cc1 (10 µM)	0	0	0	0	0	0	0	0	0	0	0	0	0	0	0	0	0	0	0	0
COc1cc2ncnc(Nc3ccccc3)c2cc1OC (10 µM)	0	5	0	0	0	0	0	0	0	0	0	0	0	0	0	0	0	0	0	0
CC/C(=N\NC(=O)c1ccnc(NCCCN2CCOCC2)c1)c1ccc(Cl)cc1O (2.5 µM)	0	0	0	0	0	0	0	0	0	0	0	0	0	0	0	0	0	0	0	0
CNc1nc(Nc2cn(C(C)(C)C#N)nc2C)ncc1C(F)(F)F (10 µM)	0	0	0	0	0	0	0	0	0	0	0	0	0	0	0	0	0	0	0	0

Whole records from above. Values in the order: number of time points (FLT3) | number of time points (FYN) | number of time points (GSK3A) | number of time points (HER2) | number of time points (INSRR) | number of time points (IRAK3) | number of time points (JAK1) | number of time points (LCK) | number of time points (LIMK1) | number of time points (LIMK2) | number of time points (LMTK2) | number of time points (LYN) | number of time points (MAP2K1) | number of time points (MAP2K2) | number of time points (MAP4K2) | number of time points (MAPK1) | number of time points (MAPK4) | number of time points (MAPKAPK2) | number of time points (MKNK1) | number of time points (NTRK2)
C#Cc1cccc(Nc2ncnc3cc(OC)c(OCCCCCCC(=O)NO)cc23)c1 (2.5 µM) is entered as 0 | 0 | 0 | 0 | 0 | 0 | 0 | 0 | 0 | 1 | 0 | 0 | 0 | 0 | 0 | 0 | 0 | 0 | 0 | 0
NC1=NCCN1CC(=O)O [Cyclocreatine] (10 µM) is entered as 0 | 0 | 0 | 0 | 0 | 0 | 0 | 0 | 0 | 0 | 0 | 0 | 0 | 0 | 0 | 0 | 0 | 0 | 0 | 0
